Laboratory results as given in patent US11401254B2, “Substituted thiophenecarboxamides and analogues as antibacterials agents” (Bayer Aktiengesellschaft, priority 2018, dated 2022).
Some of these results come from one statement about several compounds together.

These compounds were tested on salicylate responsive promoter sequence of the PR1 (pathogenesis-related protein I) gene (AT2G14610) (assay: Induction of defense gene expression in Arabidopsis thaliana (PR1 promoter-GFP reporter plants)). Settings: 75 ppm of compound; 3rd day after spraying; mock treated leaves set as 1.00.
Type: in vivo
`CCOC(=O)C(C)NC(=O)c1sc(Cl)c(Cl)c1C` (stereo not drawn) [I.27] was tested, and the relative fluorescence value was “above 2”.
With `Cc1c(C(=O)NCC(=O)O)sc(Br)c1Br` [I.10] the relative fluorescence value was “above 2”.
In the case of `Cc1c(C(=O)NC(C(=O)OC2CS(=O)(=O)C2)C(C)C)sc(Br)c1Br` (stereo not drawn) [I.18], the relative fluorescence value is reported as “above 2”.
For `Cc1c(C(=O)NC(C(=O)OC2CC2)C(C)C)sc(Br)c1Br` (stereo not drawn) [I.56], the relative fluorescence value was “above 2”.
With `CCOC(=O)CNC(=O)c1sc(Br)c(Br)c1C` [I.02] the relative fluorescence value was “above 2”.
`Cc1c(C(=O)NC(C(=O)OCC#N)C(C)C)sc(Br)c1Br` (stereo not drawn) [I.15] was tested, and the relative fluorescence value was “above 2”.
For `CCOC(=O)C(CC(C)C)NC(=O)c1sc(Br)c(Br)c1C` (stereo not drawn) [I.69], the relative fluorescence value was “above 2”.
With `Cc1c(C(=O)NCC(=O)OCc2ccccc2)sc(Cl)c1Cl` [I.34] the relative fluorescence value was “above 2”.
With `Cc1c(C(=O)NCC(=O)OC(C)C)sc(Cl)c1Cl` [I.41] the relative fluorescence value was “above 2”.
`COC(=O)C(CCSC)NC(=O)c1sc(Br)c(Br)c1C` (stereo not drawn) [I.70] was tested, and the relative fluorescence value was “above 2”.
In the case of `COC(=O)CNC(=O)c1sc(Cl)c(Cl)c1C` [I.31], the relative fluorescence value is reported as “above 2”.

Same assay, conditions: 300 ppm; 3rd day after spraying; mock treated leaves set as 1.00
With `COC(=O)C(CCSC)NC(=O)c1sc(Cl)c(Cl)c1C` (stereo not drawn) [I.35] the relative fluorescence value was “above 2”.
`CCOC(=O)C1(NC(=O)c2sc(Cl)c(Cl)c2C)CC1` [I.43] was tested, and the relative fluorescence value was “above 2”.
With `Cc1c(C(=O)N[C@H](C(=O)O)C(C)C)sc(Br)c1Br` (racemic) [I.07, N-[(4,5-dibromo-3-methyl-2-thienyl)carbonyl]-valine] the relative fluorescence value was “above 2”.
In the case of `Cc1c(C(=O)NC(C(=O)OCC(F)(F)F)C(C)C)sc(Br)c1Br` (stereo not drawn) [I.59], the relative fluorescence value is reported as “above 2”.
With `COC(=O)[C@@H](NC(=O)c1sc(Cl)c(Cl)c1C)C(C)C` [I.29] the relative fluorescence value was “above 2”.
With `CCOC(=O)C(NC(=O)c1sc(Br)c(Br)c1C)c1ccccc1` (stereo not drawn) [I.76] the relative fluorescence value was “above 2”.
In the case of `Cc1c(C(=O)NC(C(=O)O)C(C)C)sc(Cl)c1Cl` (stereo not drawn) [I.82], the relative fluorescence value is reported as “above 2”.
In the case of `Cc1c(C(=O)NC(C)C(=O)O)sc(Br)c1Br` (stereo not drawn) [I.79], the relative fluorescence value is reported as “above 2”.
`C=CCOC(=O)C(NC(=O)c1sc(Br)c(Br)c1C)C(C)C` (stereo not drawn) [I.58] was tested, and the relative fluorescence value was “above 2”.
In the case of `CCOC(=O)C(CC(C)C)NC(=O)c1sc(Cl)c(Cl)c1C` (stereo not drawn) [I.37], the relative fluorescence value is reported as “above 2”.
For `CCCCOC(=O)C(NC(=O)c1sc(Br)c(Br)c1C)C(C)C` (stereo not drawn) [I.55], the relative fluorescence value was “above 2”.
With `COC(=O)[C@H](CCSC)NC(=O)c1sc(Cl)c(Cl)c1C` [I.30] the relative fluorescence value was “above 2”.
In the case of `CC[C@H](C)[C@H](NC(=O)c1sc(Br)c(Br)c1C)C(=O)O` [I.89], the relative fluorescence value is reported as “above 2”.
For `Cc1c(C(=O)NC2(C(=O)O)CC2)sc(Cl)c1Cl` [I.51], the relative fluorescence value was “above 2”.
For `CSCCC(NC(=O)c1sc(Cl)c(Cl)c1C)C(=O)O` (stereo not drawn) [I.85], the relative fluorescence value was “above 2”.
In the case of `Cc1c(C(=O)NC(C(=O)OC[Si](C)(C)C)C(C)C)sc(Br)c1Br` (stereo not drawn) [I.20], the relative fluorescence value is reported as “above 2”.
In the case of `CCOC(=O)[C@H](Cc1ccccc1)NC(=O)c1sc(Cl)c(Cl)c1C` [I.26], the relative fluorescence value is reported as “above 2”.
With `CCOC(=O)C(CC(C)C)NC(=O)c1sc(Br)c(Br)c1C` (stereo not drawn) [I.68] the relative fluorescence value was “above 2”.
With `CC[C@H](C)[C@H](NC(=O)c1sc(Cl)c(Cl)c1C)C(=O)O` [I.83] the relative fluorescence value was “above 2”.
In the case of `CCOC(=O)C(C)NC(=O)c1sc(Br)c(Br)c1C` (stereo not drawn) [I.21], the relative fluorescence value is reported as “above 2”.
With `Cc1c(C(=O)NC(C(=O)OC(C)(C)C)C(C)C)sc(Br)c1Br` (stereo not drawn) [I.61] the relative fluorescence value was “above 2”.
With `Cc1c(C(=O)NC(Cc2ccccc2)C(=O)O)sc(Cl)c1Cl` (stereo not drawn) [I.86] the relative fluorescence value was “above 2”.
`COC(=O)C(CCSC)NC(=O)c1sc(Br)c(Br)c1C` (stereo not drawn) [I.71] was tested, and the relative fluorescence value was “above 2”.
For `Cc1c(C(=O)NC(C(=O)OC2CCC2)C(C)C)sc(Br)c1Br` (stereo not drawn) [I.53], the relative fluorescence value was “above 2”.
`COC(=O)C(NC(=O)c1sc(Br)c(Br)c1C)C(C)C` (stereo not drawn) [I.63] was tested, and the relative fluorescence value was “above 2”.
`Cc1c(C(=O)NCC(=O)OC(C)C)sc(Br)c1Br` [I.78] was tested, and the relative fluorescence value was “above 2”.
For `CCOC(=O)[C@@H](NC(=O)c1sc(Br)c(Br)c1C)C(C)C` (racemic) [I.04, ethyl N-[(4,5-dibromo-3-methyl-2-thienyl)carbonyl]-valinate], the relative fluorescence value was “above 2”.
For `COC(=O)[C@@H](NC(=O)c1sc(Br)c(Br)c1C)C(C)C` [I.11], the relative fluorescence value was “above 2”.
With `COC(=O)C(NC(=O)c1sc(Cl)c(Cl)c1C)C(C)C` (stereo not drawn) [I.46] the relative fluorescence value was “above 2”.
In the case of `C#CCOC(=O)C(NC(=O)c1sc(Br)c(Br)c1C)C(C)C` (stereo not drawn) [I.13], the relative fluorescence value is reported as “above 2”.
For `CCOC(=O)C(Cc1ccccc1)NC(=O)c1sc(Br)c(Br)c1C` (stereo not drawn) [I.65], the relative fluorescence value was “above 2”.
`Cc1c(C(=O)NC(CC(C)C)C(=O)O)sc(Cl)c1Cl` (stereo not drawn) [I.84] was tested, and the relative fluorescence value was “above 2”.
`CCOC(=O)[C@@H](NC(=O)c1sc(Br)c(Br)c1C)C(C)C` [I.08] was tested, and the relative fluorescence value was “above 2”.
In the case of `CCOC(=O)C1(NC(=O)c2sc(Br)c(Br)c2C)CC1` [I.01, ethyl 1-{[(4,5-dibromo-3-methyl-2-thienyl)carbonyl]amino}cyclopropanecarboxylate], the relative fluorescence value is reported as “above 2”.
With `Cc1c(C(=O)NC(C(=O)OCc2ccccc2)C(C)C)sc(Br)c1Br` (stereo not drawn) [I.57] the relative fluorescence value was “above 2”.
With `CCOC(=O)[C@H](CC(C)C)NC(=O)c1sc(Cl)c(Cl)c1C` [I.33] the relative fluorescence value was “above 2”.
`CCOC(=O)C(CC(C)C)NC(=O)c1sc(Br)c(Br)c1C` (stereo not drawn) [I.05] was tested, and the relative fluorescence value was “above 2”.
With `CCOC(=O)C(CCSC)NC(=O)c1sc(Cl)c(Cl)c1C` (stereo not drawn) [I.47] the relative fluorescence value was “above 2”.
`COC(=O)C(NC(=O)c1sc(Cl)c(Cl)c1C)C(C)C` (stereo not drawn) [I.91] was tested, and the relative fluorescence value was “above 2”.
For `CCOC(=O)C(Cc1ccc(O)cc1)NC(=O)c1sc(Cl)c(Cl)c1C` (stereo not drawn) [I.39], the relative fluorescence value was “above 2”.
For `CCOC(=O)C(NC(=O)c1sc(Cl)c(Cl)c1C)c1ccccc1` (stereo not drawn) [I.75], the relative fluorescence value was “above 2”.
With `Cc1c(C(=O)NC(C(=O)OC2COC2)C(C)C)sc(Br)c1Br` (stereo not drawn) [I.16] the relative fluorescence value was “above 2”.
With `Cc1c(C(=O)NCC(=O)O)sc(Cl)c1Cl` [I.80] the relative fluorescence value was “above 2”.
`CCCOC(=O)C(NC(=O)c1sc(Br)c(Br)c1C)C(C)C` (stereo not drawn) [I.54] was tested, and the relative fluorescence value was “above 2”.
With `Cc1c(C(=O)NC(C)C(=O)O)sc(Cl)c1Cl` (stereo not drawn) [I.81] the relative fluorescence value was “above 2”.
For `Cc1c(C(=O)NC(C(=O)OC(C)C)C(C)C)sc(Br)c1Br` (stereo not drawn) [I.49], the relative fluorescence value was “above 2”.
`Cc1c(C(=O)NC(C(=O)Oc2ccccc2)C(C)C)sc(Br)c1Br` (stereo not drawn) [I.60] was tested, and the relative fluorescence value was “above 2”.
`Cc1c(C(=O)NC(C(=O)OC2CCOC2)C(C)C)sc(Br)c1Br` (stereo not drawn) [I.19] was tested, and the relative fluorescence value was “above 2”.
With `COC(=O)[C@@H](CCSC)NC(=O)c1sc(Cl)c(Cl)c1C` [I.36] the relative fluorescence value was “above 2”.
With `CCOC(=O)CNC(=O)c1sc(Cl)c(Cl)c1C` [I.03, ethyl N-[(4,5-dichloro-3-methyl-2-thienyl)carbonyl]glycinate] the relative fluorescence value was “above 2”.
In the case of `CCOC(=O)C(Cc1ccc(O)cc1)NC(=O)c1sc(Br)c(Br)c1C` (stereo not drawn) [I.23], the relative fluorescence value is reported as “above 2”.
With `CCCOC(=O)CNC(=O)c1sc(Cl)c(Cl)c1C` [I.48] the relative fluorescence value was “above 2”.
`CSCCC(NC(=O)c1sc(Br)c(Br)c1C)C(=O)O` (stereo not drawn) [I.87] was tested, and the relative fluorescence value was “above 2”.
With `Cc1c(C(=O)NC(Cc2ccccc2)C(=O)O)sc(Br)c1Br` (stereo not drawn) [I.88] the relative fluorescence value was “above 2”.
In the case of `CCOC(=O)[C@H](CCSC)NC(=O)c1sc(Cl)c(Cl)c1C` [I.24], the relative fluorescence value is reported as “above 2”.
